Measured values from the supplement of paper PMC8426693.
The list shows a part of the results.

What was measured:
Assay in all cases: NMR binding call after quantification (hit when 2 of 3 NMR criteria are met) (binary (1 = binding, 0 = not binding)); higher = binding
Details in all cases: RNA concentration 10 µM; fragment concentration 200 µM; 293 K
SARS-CoV-2 5_SL7 RNA = system: SARS-CoV-2 5_SL7 RNA
SARS-CoV-2 5_SL8 RNA = system: SARS-CoV-2 5_SL8 RNA
[1] = system: SARS-CoV-2 attenuator hairpin (att HP) RNA
[2] = system: SARS-CoV-2 frameshift pseudoknot (PK) RNA

Measured: NMR binding call

CC(=O)N1CCN(c2ccc(Cl)cc2)CC1
0: all assays above

CC(C)(O)CN1CCC(N)C1 (stereo not drawn)
0: all assays above

CC(C)C(=O)N1CCN(C(C)C)CC1
0: all assays above

Cc1ccc(CNC(=O)Cc2cccs2)cc1
0: all assays above

O=C1CN(C(=O)COc2ccccc2)CCN1
0: all assays above

Cc1noc(C(N)C(C)C)n1 (stereo not drawn)
0: all assays above

CC(=O)Nc1ccc(-c2csc(N)n2)cc1
0: all assays above

CC(=O)Nc1ccc(F)c(C(=O)O)c1
0: all assays above

CC(=O)Nc1ccc(CC(N)=O)cc1
0: all assays above

CC(C)Nc1ncccn1
0: all assays above

NC(=O)CN1CCN(C(=O)c2ccco2)CC1
0: all assays above

CN(C)CCN1C(=O)c2ccccc2C1=O
0: all assays above

Cc1nn(C)c(C)c1CN1CCNCC1
0: all assays above

OCc1ccccc1N1CCOCC1
0: all assays above

CC1COCCN1CCN (stereo not drawn)
0: all assays above

NC(=O)C1CCN(CCc2ccccc2)CC1
0: all assays above

O=C(Cc1ccccc1)N1CCc2ccccc21
0: all assays above

CC(N)c1ccc(NC(=O)C2CC2)cc1.Cl (stereo not drawn)
0: all assays above

CNC(=O)c1cccc(C(=O)O)n1
0: all assays above

Cc1occc1C(=O)Nc1cc(C(C)(C)C)on1
0: all assays above

Cc1cc(NC(=O)CSc2ccccc2)no1
0: all assays above

O=c1[nH]cc(N2CCCCC2)c(=O)[nH]1
0: all assays above

CN1CCN(c2ncccc2F)CC1=O
0: all assays above

CC(O)CNCc1c(Cl)cccc1Cl (stereo not drawn)
0: all assays above

CCOC(=O)c1ccc(F)cc1F
0: all assays above

CCOC(=O)c1cn[nH]c1
0: all assays above

C1CC(CNC2CC2)CO1 (stereo not drawn)
0: all assays above

CC(C)(CO)NC(=O)c1cccc(Cl)c1
0: all assays above

CC(C)(N)CN1CCCC1
0: all assays above

CC(=O)NCc1cn[nH]c1
0: all assays above

CS(=O)(=O)NCCc1ccc(F)cc1
0: all assays above

CN1CCN(C(=O)Nc2ccc(F)cc2)CC1
0: all assays above

CCOc1ncccc1C(N)=O
0: all assays above

CC(Oc1ccc(Cl)cc1)C(N)=O (stereo not drawn)
0: all assays above

Retrieved by structure from the list above, two records:
CC(C)C(=O)N1CCN(C(C)C)CC1
0: all assays above

Cc1occc1C(=O)Nc1cc(C(C)(C)C)on1
0: all assays above

More results follow.

O=C(Nc1ccc(Cl)cc1)Nn1cnnc1
0: all assays above

CNC(=O)C1CNCCO1 (stereo not drawn)
0: all assays above

CN1CCCC1CO (stereo not drawn)
0: all assays above

CC(NC1CC1)c1cccnc1 (stereo not drawn)
0: all assays above

O=C(Nc1ccc(-n2cnnn2)cc1)C1CCC1
0: all assays above

CC1CCN(C(=O)CCCc2ccccc2)CC1
0: all assays above

COc1ccc(C)cc1NC(=O)CN.Cl
0: all assays above

Cc1nc(C(=O)N2CCCC2)c(C)s1
0: all assays above

Cc1csc(NC(=O)C2CCOCC2)n1
0: all assays above

COC(=O)Nc1cc(C)n(-c2ccccc2)n1
0: all assays above

CC1C(O)CCCN1Cc1ccccc1 (stereo not drawn)
0: all assays above

COc1cc(CN)cc(OC)c1OC.Cl
0: all assays above

c1ccc2sc(N3CCOCC3)nc2c1
0: all assays above

N#CCN1CCN(c2cccc(Cl)c2)CC1
0: all assays above

CC(C)(C)C1CCN(C(=O)c2ccccc2)CC1
0: all assays above

CCNc1ccc(C#N)cn1
0: all assays above

CNCc1ccncc1
0: all assays above

COCC(=O)Nc1ccccc1C(N)=O
0: all assays above

CNC1CCCN(c2ccccc2)C1=O (stereo not drawn)
0: all assays above

CC(C)NC(=O)N(C)C1CCS(=O)(=O)C1 (stereo not drawn)
0: all assays above

COC(=O)C1CCN(C(=O)NC(C)(C)C)CC1
0: all assays above

CC(C)c1ncc(Cl)c(C(N)=O)n1
0: all assays above

Cn1cc(C(=O)O)c(-c2ccncc2)n1
0: all assays above

CC(N)C(=O)Nc1cc(C(F)(F)F)n[nH]1.Cl (stereo not drawn)
0: all assays above

O=C(NCCN1CCCC1=O)Nc1ccccc1
0: all assays above

Fc1ccccc1CNc1cn[nH]c1
0: all assays above

CCOc1ccc(C(N)=O)cn1
0: all assays above

Cc1nsc(N2CCOC(C)C2C)n1 (stereo not drawn)
0: all assays above

CCc1ncc(CNC)s1
0: all assays above

CC(=O)Nc1cccc2nonc12
0: all assays above

Cc1ccc(S(=O)(=O)N(C)CCC#N)cc1
0: all assays above

Cc1ccc(C(=O)Nc2nnc[nH]2)cc1C
0: all assays above

Cc1ccc(CC(=O)Nc2nccs2)cc1
0: all assays above

CC(C)c1ccc(C(=O)Nc2ccccn2)cc1
0: all assays above

NC(=O)N1CCN(c2ccc(F)cc2)CC1
0: all assays above

Cc1n[nH]c(C)c1S(=O)(=O)N(C)C
0: all assays above

CC(C)c1ccc(CN2CCC(O)CC2)cc1
0: all assays above

CC1CCN(Cc2c[nH]c3ccccc23)CC1
0: all assays above

Cn1cc(Cl)c(C(=O)NC2CCCC2)n1
0: all assays above

COc1cccc(CN2CCC(C(N)=O)CC2)c1
0: all assays above

O=C(NCCc1ccc(O)cc1)c1ccccn1
0: all assays above

Cc1ccc(C(N)=O)c(F)c1
0: all assays above

CC(C)n1cnc(S(N)(=O)=O)c1
0: all assays above

Filtered by structure, the compounds so far with a halogen (20)
CC(=O)N1CCN(c2ccc(Cl)cc2)CC1
0: all assays above

CC(=O)Nc1ccc(F)c(C(=O)O)c1
0: all assays above

CC(N)c1ccc(NC(=O)C2CC2)cc1.Cl (stereo not drawn)
0: all assays above

CN1CCN(c2ncccc2F)CC1=O
0: all assays above

CC(O)CNCc1c(Cl)cccc1Cl (stereo not drawn)
0: all assays above

CCOC(=O)c1ccc(F)cc1F
0: all assays above

CC(C)(CO)NC(=O)c1cccc(Cl)c1
0: all assays above

CS(=O)(=O)NCCc1ccc(F)cc1
0: all assays above

CN1CCN(C(=O)Nc2ccc(F)cc2)CC1
0: all assays above

CC(Oc1ccc(Cl)cc1)C(N)=O (stereo not drawn)
0: all assays above

O=C(Nc1ccc(Cl)cc1)Nn1cnnc1
0: all assays above

COc1ccc(C)cc1NC(=O)CN.Cl
0: all assays above

COc1cc(CN)cc(OC)c1OC.Cl
0: all assays above

N#CCN1CCN(c2cccc(Cl)c2)CC1
0: all assays above

CC(C)c1ncc(Cl)c(C(N)=O)n1
0: all assays above

CC(N)C(=O)Nc1cc(C(F)(F)F)n[nH]1.Cl (stereo not drawn)
0: all assays above

Fc1ccccc1CNc1cn[nH]c1
0: all assays above

NC(=O)N1CCN(c2ccc(F)cc2)CC1
0: all assays above

Cn1cc(Cl)c(C(=O)NC2CCCC2)n1
0: all assays above

Cc1ccc(C(N)=O)c(F)c1
0: all assays above
